No constants are given. Whether binding was seen depends on the method and setting. Some binding calls cover weakened binding; strength is not graded here.
What was measured:
[1] = target: T1, human LTBP3-proTGFβ1 complex (human, UniProt Q9NS15 44-1303; P01137 30-390, limits assumed); test: SPR (Biacore), monovalent Fab
T1 construct: also called hLTBP3-proTGFβ1

Chains of the proteins cited; added tags and fusions are not shown. Lines headed by an entry give the natural chain unless they say otherwise; changes in a name come on top.
UniProt Q9NS15: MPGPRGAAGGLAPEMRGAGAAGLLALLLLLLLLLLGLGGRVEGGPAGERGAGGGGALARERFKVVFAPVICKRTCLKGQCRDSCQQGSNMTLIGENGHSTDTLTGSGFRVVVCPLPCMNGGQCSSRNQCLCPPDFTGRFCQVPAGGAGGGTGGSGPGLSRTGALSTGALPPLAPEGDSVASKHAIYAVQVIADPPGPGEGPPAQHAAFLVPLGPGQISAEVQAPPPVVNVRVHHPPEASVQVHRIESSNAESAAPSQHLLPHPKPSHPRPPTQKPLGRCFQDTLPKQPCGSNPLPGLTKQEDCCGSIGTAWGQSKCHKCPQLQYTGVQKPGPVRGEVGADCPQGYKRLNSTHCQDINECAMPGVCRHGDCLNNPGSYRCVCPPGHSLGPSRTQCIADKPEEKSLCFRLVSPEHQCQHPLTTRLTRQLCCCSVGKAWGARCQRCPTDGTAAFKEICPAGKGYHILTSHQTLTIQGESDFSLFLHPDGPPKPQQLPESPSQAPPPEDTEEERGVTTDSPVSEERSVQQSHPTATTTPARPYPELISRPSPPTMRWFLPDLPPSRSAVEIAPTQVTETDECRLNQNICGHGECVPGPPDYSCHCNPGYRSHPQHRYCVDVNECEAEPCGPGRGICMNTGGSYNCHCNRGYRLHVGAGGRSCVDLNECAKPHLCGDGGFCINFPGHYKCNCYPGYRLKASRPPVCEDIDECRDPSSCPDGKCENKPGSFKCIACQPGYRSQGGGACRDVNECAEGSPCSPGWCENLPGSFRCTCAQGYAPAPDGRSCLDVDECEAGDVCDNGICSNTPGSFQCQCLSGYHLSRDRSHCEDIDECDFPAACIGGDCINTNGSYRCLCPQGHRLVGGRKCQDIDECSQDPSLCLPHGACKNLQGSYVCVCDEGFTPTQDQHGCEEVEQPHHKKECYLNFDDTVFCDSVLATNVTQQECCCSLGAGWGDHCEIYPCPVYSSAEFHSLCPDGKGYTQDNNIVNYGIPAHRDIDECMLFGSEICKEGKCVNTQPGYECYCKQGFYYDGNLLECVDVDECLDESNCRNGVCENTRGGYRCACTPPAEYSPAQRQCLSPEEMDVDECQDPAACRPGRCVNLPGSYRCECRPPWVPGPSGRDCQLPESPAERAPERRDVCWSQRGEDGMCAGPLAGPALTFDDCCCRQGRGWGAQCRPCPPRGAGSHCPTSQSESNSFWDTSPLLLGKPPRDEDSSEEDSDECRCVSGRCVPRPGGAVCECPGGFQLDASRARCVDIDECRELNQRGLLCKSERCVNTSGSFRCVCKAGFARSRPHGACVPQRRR
UniProt Q14766: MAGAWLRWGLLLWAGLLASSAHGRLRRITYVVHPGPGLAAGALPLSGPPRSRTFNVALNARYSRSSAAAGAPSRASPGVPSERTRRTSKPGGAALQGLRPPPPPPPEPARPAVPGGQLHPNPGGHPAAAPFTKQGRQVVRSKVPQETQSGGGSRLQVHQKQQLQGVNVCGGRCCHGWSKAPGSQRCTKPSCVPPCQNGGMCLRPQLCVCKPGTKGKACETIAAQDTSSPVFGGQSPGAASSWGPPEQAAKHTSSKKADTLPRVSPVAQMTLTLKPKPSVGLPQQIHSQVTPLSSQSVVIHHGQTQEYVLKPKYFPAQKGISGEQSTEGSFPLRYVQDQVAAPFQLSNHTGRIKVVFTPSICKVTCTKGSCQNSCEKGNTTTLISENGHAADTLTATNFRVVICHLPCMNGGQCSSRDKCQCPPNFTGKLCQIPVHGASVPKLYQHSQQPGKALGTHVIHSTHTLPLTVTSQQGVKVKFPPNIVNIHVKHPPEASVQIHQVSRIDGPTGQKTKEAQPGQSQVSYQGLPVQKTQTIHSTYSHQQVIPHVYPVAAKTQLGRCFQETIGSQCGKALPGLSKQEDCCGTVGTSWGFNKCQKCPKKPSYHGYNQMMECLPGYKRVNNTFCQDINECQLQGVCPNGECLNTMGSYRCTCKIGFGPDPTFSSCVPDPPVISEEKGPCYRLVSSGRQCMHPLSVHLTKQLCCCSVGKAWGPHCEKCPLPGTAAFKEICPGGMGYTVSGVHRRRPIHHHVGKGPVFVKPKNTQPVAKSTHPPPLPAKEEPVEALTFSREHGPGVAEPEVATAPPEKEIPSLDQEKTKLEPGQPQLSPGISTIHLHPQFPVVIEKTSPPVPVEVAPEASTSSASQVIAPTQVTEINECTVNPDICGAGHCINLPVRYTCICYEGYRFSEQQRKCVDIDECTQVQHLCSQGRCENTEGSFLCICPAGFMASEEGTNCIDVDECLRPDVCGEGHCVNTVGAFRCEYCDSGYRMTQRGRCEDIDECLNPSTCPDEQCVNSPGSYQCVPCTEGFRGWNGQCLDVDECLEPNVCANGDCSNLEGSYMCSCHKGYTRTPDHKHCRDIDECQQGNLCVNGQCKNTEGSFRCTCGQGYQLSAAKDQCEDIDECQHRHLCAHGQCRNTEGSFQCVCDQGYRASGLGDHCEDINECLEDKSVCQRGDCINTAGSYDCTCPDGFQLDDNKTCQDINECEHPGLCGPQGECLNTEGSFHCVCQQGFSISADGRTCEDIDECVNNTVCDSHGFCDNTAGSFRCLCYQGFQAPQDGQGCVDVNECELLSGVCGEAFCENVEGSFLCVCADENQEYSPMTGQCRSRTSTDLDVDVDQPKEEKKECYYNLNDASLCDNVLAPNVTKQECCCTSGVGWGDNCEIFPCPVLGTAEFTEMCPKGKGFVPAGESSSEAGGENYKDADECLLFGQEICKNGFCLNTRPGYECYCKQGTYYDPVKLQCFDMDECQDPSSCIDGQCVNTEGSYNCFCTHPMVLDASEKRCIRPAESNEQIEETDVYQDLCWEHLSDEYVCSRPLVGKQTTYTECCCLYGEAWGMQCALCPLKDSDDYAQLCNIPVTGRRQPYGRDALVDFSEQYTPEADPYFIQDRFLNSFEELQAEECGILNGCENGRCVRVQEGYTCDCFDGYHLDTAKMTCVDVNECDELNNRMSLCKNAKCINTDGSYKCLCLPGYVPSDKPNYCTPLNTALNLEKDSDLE
UniProt Q86YC3: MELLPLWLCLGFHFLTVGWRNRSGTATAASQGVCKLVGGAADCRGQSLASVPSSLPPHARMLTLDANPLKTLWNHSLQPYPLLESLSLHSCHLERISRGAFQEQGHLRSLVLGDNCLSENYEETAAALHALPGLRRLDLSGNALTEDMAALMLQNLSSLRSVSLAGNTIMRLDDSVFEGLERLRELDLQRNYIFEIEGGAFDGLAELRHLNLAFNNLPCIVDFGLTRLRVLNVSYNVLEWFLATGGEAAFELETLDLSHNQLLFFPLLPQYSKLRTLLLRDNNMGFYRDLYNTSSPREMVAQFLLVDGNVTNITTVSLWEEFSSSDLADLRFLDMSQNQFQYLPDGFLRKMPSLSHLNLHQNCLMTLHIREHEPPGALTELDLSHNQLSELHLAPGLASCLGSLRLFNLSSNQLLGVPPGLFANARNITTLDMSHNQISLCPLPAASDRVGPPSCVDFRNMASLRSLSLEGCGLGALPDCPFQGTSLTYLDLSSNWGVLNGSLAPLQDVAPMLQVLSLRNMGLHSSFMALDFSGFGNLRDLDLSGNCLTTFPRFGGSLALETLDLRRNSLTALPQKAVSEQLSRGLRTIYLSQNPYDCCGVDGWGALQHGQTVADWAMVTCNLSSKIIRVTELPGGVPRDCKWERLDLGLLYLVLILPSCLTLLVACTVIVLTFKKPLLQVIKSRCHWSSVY
UniProt Q14392: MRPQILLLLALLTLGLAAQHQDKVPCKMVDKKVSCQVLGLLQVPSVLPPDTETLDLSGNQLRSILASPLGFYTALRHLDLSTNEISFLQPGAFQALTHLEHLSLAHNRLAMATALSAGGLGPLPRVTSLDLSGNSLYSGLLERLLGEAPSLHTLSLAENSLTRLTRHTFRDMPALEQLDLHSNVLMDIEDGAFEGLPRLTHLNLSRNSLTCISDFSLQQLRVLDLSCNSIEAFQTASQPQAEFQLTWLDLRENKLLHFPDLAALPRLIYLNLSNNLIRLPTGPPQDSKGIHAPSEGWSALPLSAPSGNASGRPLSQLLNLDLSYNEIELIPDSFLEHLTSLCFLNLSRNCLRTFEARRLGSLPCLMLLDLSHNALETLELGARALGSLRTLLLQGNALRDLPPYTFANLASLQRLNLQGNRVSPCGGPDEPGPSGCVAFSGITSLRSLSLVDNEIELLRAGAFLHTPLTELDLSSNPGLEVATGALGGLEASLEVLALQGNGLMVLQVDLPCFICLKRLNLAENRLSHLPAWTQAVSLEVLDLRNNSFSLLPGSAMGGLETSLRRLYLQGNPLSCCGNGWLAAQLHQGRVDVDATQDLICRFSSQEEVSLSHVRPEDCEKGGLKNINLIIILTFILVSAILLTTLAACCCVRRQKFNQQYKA

[2] = target: T2, human LTBP1-proTGFβ1 complex (human, UniProt Q14766 347-1721; P01137 30-390); test: SPR (Biacore), monovalent Fab
T2 construct: also called hLTBP1-proTGFβ1

[3] = target: T1, human LTBP3-proTGFβ1 complex; test: SPR (Biacore), Fab; FIG. 2
[4] = target: T3, human LRRC33-proTGFβ1 complex (human, UniProt Q86YC3 19-650; P01137 30-390, limits assumed); test: SPR (Biacore), Fab; FIG. 2
T3 construct: also called hLRRC33-proTGFβ1

[5] = target: T4, human GARP-proTGFβ1 complex (human, UniProt Q14392 20-627; P01137 30-390, limits assumed); test: SPR (Biacore), Fab; FIG. 2
T4 construct: also called hGARP-proTGFβ1

[6] = target: T2, human LTBP1-proTGFβ1 complex; test: SPR (Biacore), Fab; FIG. 2
[7] = target: T1, human LTBP3-proTGFβ1 complex; test: Biacore (SPR), relative response (RU) against time (s)
[8] = target: T3, human LRRC33-proTGFβ1 complex; test: as above
[9] = target: T4, human GARP-proTGFβ1 complex; test: as above
[10] = target: T2, human LTBP1-proTGFβ1 complex; test: as above
[11] = target: T1, human LTBP3-proTGFβ1 complex; test: SPR (Biacore), Fab
[12] = target: T2, human LTBP1-proTGFβ1 complex; test: SPR (Biacore), Fab

binding [1]: binds
binding [2]: binds
binding [3]: binds
binding [4]: binds
binding [5]: binds
binding [6]: binds
binding [7]: binds
binding [8]: binds
binding [9]: binds
binding [10]: binds
binding [11]: binds
binding [12]: binds
B1: Ab42 human Fab (Fab, V domains shown)
VH: QVQLVESGGGVVQPGRSLRLSCAASGFTFRSYVMHWVRQAPGKGLEWVAVISHEGSLKYYADSVKGRFTISRDNSKNTLYLQMNSLRAEDTAVYYCARPRIAARRGGFGYWGQGTLVTVSS
VL: NFMLTQPHSVSESPGKTVTISCTRSSGNIDNNYVQWYQQRPGSSPTTVIYEDNQRPSGVPDRFSGSIDSSSNSASLTISGLKTEDEADYYCQSYDYDTQGVVFGGGTKLTVL
notes: Fab of Ab42; also called Ab42 Fab; Ab42 (monovalent, Fab)

— patent US20240301073A1 (SCHOLAR ROCK, published 2024)
